US20040229825A1, “Pharmaceutical composition for treatment of infection with drug resistant bacterium and disinfectant” (priority 2003, published 2004)
At least one compound was matched to its structure with a doubt left.

Tested on: MRSA
Test: Antibacterial activity of flavonoids on MRSA (agar plate dilution method, MIC)
Type: cell-based, Staphylococcus aureus
Parameters: unit not given beside the values
Details: MRSA 20 strains, flavonoid alone
Method: MRSA were employed as bacteria to be tested. The antibacterial activity was determined according to the agar plate dilution method defined by Japan Society of Chemotherapy (Chemotherapy 29(1), 76-79(1981)). The employed plate medium for the measurement of sensitivity was semisynthetic medium based on Mueller-Hinton Agar, and the bacteria solution for seeding was prepared by incubating the test bacterium in Mueller-Hinton Broth at 37° C. for 20 hours, followed by diluting in 0.85% saline to give 10^6 CFU/mL. The test samples were produced in two times-serial dilution method. To this plate medium for the measurement of sensitivity, was seeded a bacteria solution with a Micro Planter® (Sakuma Seisakusho). After incubating at 37° C. for 20 hours, a minimum inhibitory concentration (MIC) was determined. […] In addition, MIC50 indicates a concentration yielding the proliferation inhibitory effect in 50% of total number of MRSA strains, whilst MIC90 indicates a concentration yielding the proliferation inhibitory effect in 90% of total number of MRSA strains.

## Oc1cc(O)c2cc(O)c(-c3ccc(O)c(O)c3)[o+]c2c1 [cyanidin]
  MIC range: 250->500
